No constants are given. Whether binding was seen depends on the method and setting. For part of these data: Binding seen in cells or lysates may run through a third protein. Some results given as binding are weak or reduced against the parent protein; the word gives no strength. For part of these data: Tags and fused reporters may be left off the sequences shown.

For experiment [1], the target named is T1, mouse Sema3A (residues 26–730, furin sites mutated) with C-terminal 3C-Avi-His6 tag (mouse) (UniProt O08665).
T1 sequence: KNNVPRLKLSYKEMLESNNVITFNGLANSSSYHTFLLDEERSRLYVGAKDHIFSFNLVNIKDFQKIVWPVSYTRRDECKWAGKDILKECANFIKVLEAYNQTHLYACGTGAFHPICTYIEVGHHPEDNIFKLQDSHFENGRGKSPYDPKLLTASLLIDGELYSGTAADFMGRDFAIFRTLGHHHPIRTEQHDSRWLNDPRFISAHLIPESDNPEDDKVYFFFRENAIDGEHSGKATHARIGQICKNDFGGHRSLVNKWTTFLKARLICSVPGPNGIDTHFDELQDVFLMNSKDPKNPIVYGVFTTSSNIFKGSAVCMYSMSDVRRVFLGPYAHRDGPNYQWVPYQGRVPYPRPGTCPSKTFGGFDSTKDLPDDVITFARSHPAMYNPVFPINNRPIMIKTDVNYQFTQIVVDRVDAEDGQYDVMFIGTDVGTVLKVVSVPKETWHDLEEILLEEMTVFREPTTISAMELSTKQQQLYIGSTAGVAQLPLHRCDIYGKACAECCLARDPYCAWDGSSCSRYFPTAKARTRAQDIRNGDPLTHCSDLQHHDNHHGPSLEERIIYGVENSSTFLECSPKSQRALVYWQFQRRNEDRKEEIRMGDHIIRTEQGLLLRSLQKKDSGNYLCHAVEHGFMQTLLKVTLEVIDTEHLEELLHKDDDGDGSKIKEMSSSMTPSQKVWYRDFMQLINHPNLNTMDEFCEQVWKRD
The experiment is described as follows: pull-down; HEK293T co-transfected with a His6-tagged and a TwinStrep-tagged semaphorin; conditioned medium 5 days post transfection; two-step affinity chromatography (HisTrap, then StrepTactin); western blot and SDS-PAGE of flow-through and eluate. (Immunoblotting shows a protein as a band on a membrane.)

The target in experiment [2] is Sema2a_(full) with C-terminal TwinStrep tag (Drosophila melanogaster) (UniProt Q24323). The experiment is described as above.
Experiment [3] has as its target T2, Drosophila melanogaster PlexA1–4-mVenus (Drosophila melanogaster, UniProt Q9V491 28-730).
T2 construct: Plexin A, Drosophila melanogaster, domains 1-4 of the ectodomain, residues 28Q-730T; source: HEK293T, transient transfection, purified (HisTrap, SEC); not shown: mVenus, C-terminal, kept
T2 sequence (looked up): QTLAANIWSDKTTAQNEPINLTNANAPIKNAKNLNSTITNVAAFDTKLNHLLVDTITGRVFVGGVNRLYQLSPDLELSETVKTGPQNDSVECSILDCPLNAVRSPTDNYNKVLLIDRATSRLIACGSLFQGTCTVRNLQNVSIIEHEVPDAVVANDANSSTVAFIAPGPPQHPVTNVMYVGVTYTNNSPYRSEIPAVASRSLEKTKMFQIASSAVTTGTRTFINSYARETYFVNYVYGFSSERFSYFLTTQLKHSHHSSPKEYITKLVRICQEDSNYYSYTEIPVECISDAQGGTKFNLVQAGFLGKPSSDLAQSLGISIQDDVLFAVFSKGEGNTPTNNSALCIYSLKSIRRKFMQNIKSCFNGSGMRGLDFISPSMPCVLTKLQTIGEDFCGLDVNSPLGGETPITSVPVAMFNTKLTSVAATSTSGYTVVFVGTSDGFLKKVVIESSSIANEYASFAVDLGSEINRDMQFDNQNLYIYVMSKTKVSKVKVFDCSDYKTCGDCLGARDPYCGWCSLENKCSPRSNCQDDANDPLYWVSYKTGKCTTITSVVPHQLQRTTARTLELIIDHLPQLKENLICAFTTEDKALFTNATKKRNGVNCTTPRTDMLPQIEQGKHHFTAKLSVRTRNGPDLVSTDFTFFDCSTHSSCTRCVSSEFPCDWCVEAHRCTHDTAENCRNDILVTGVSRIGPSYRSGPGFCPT
The experiment is described as follows: MST; plexin-mVenus kept constant, unlabelled semaphorin titrated (1:1 dilution series); 25 °C; 15 mM HEPES pH 7.4, 150 mM NaCl, 2 mM CaCl2, 0.005% Tween-20; 1 h incubation at room temperature; apparent Kd; both purified.

Experiment [4] addresses Drosophila melanogaster semaphorin-1b full-length ectodomain (Sema1b_(ecto)) (Drosophila melanogaster) (UniProt Q7KK54). The experiment is described as follows: SEC-MALS; Superdex 200 Increase 10/300, 15 mM HEPES pH 7.4, 150 mM NaCl; with SDS-PAGE under reducing and non-reducing conditions; initial concentrations up to 2 mg/ml; monomer to dimer; both purified.
The target of experiment [5] is T3, Drosophila melanogaster PlexB1–4-mVenus (Drosophila melanogaster) (UniProt Q9V4A7).
T3 sequence: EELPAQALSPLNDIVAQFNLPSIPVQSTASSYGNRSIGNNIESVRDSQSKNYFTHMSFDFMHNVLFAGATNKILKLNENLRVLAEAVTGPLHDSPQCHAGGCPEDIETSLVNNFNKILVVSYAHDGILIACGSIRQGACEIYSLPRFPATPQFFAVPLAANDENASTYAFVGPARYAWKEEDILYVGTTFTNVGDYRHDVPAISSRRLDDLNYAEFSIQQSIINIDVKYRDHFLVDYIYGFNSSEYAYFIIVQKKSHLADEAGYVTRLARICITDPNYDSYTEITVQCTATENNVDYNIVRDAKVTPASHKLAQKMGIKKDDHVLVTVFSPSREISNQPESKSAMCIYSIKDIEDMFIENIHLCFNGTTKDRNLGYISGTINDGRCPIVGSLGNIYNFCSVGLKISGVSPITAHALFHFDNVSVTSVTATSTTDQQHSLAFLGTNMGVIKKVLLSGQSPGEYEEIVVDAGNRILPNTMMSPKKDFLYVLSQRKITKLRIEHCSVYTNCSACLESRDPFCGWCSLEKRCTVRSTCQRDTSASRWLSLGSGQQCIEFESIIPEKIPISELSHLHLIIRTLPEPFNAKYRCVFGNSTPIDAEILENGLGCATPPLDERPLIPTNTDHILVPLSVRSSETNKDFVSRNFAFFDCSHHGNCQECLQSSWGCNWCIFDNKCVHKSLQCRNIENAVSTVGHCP
The experiment is described as follows: MST; plexin-mVenus kept constant, unlabelled semaphorin titrated (1:1 dilution series); 25 °C; 15 mM HEPES pH 7.4, 150 mM NaCl, 2 mM CaCl2, 0.005% Tween-20; 1 h incubation at room temperature; apparent Kd; both purified.

In experiment [6] the target is Drosophila melanogaster Sema1b1–2 (sema and PSI domains) (Drosophila melanogaster) (UniProt Q7KK54). The experiment is described as follows: crystal structure; sitting-drop vapour diffusion at 20 °C; data at 100 K; both purified.

B1: mouse Sema3C (residues 22–711, furin sites mutated) with C-terminal TwinStrep tag (ligand, UniProt Q62181 22-711, looked up)
chain: SSQPQARVYLTFDELRETKTSEYFSLSHQQLDYRILLMDEDQDRIYVGSKDHILSLNINNISQEPLSVFWPASTIKVEECKMAGKDPTHGCGNFVRVIQTFNRTHLYVCGSGAFSPVCTYLNRGRRSEDQVFMIDSKCESGKGRCSFNPNVNTVSVMINEELFSGMYIDFMGTDAAIFRSLTKRNAVRTDQHNSKWLSEPMFVDAHVIPDGTDPNDAKVYFFFKERLTDNNRSTKQIHSMIARICPNDTGGQRSLVNKWTTFLKARLVCSVTDEDGPETHFDELEDVFLLETDNPRTTLVYGIFTTSSSVFKGSAVCVYHLSDIQTVFNGPFAHKEGPNHQLISYQGRIPYPRPGTCPGGAFTPNMRTTKDFPDDVVTFIRNHPLMYNSIYPIHRRPLIVRIGTDYKYTKIAVDRVNAADGRYHVLFLGTDRGTVQKVVVLPTNSSASGELILEELEVFKNHVPITTMKISSKKQQLYVSSNEGVSQVSLHRCHIYGTACADCCLARDPYCAWDGHSCSRFYPTGKARSRAQDVRHGNPLTQCRGFNLKAYRNAAEIVQYGVRNNSTFLECAPKSPQASIKWLLQKDKDRRKEVKLNERIIATSQGLLIRSVQDSDQGLYHCIATENSFKQTIAKINFKVLDSEMVAVVTDKWSPWTWAGSVRALPFHPKDILGAFSHSEMQLINQYCKD
notes: Semaphorin-3C, mouse, residues 22-711, furin cleavage sites mutated (R548, 552A); also called Sema3C-TwinStrep; source: HEK293T, transient co-transfection, secreted into conditioned medium; not shown: TwinStrep, C-terminal, kept
For B1, the binding entry in experiment [1] is “binds”.

B2: Sema2a_(full) with C-terminal TwinStrep tag (ligand, UniProt Q24323 26-724)
chain: DYENTWNFYYERPCCTGNDQGNNNYGKHGADHVREFNCGKLYYRTFHMNEDRDTLYVGAMDRVFRVNLQNISSSNCNRDVINLEPTRDDVVSCVSKGKSQIFDCKNHVRVIQSMDQGDRLYVCGTNAHNPKDYVIYANLTHLPRSEYVIGVGLGIAKCPYDPLDNSTAIYVENGNPGGLPGLYSGTNAEFTKADTVIFRTDLYNTSAKRLEYKFKRTLKYDSKWLDKPNFVGSFDIGEYVYFFFRETAVEYINCGKAVYSRIARVCKKDVGGKNLLAHNWATYLKARLNCSISGEFPFYFNEIQSVYQLPSDKSRFFATFTTSTNGLIGSAVCSFHINEIQAAFNGKFKEQSSSNSAWLPVLNSRVPEPRPGTCVNDTSNLPDTVLNFIRSHPLMDKAVNHEHNNPVYYKRDLVFTKLVVDKIRIDILNQEYIVYYVGTNLGRIYKIVQYYRNGESLSKLLDIFEVAPNEAIQVMEISQTRKSLYIGTDHRIKQIDLAMCNRRYDNCFRCVRDPYCGWDKEANTCRPYELDLLQDVANETSDICDSSVLKKKIVVTYGQSVHLGCFVKIPEVLKNEQVTWYHHSKDKGRYEIRYSPTKYIETTERGLVVVSVNEADGGRYDCHLGGSLLCSYNITVDAHRCTPPNKSNDYQKIYSDWCHEFEKYKTAMKSWEKKQAQCSTRQNFSSNQHPNEIFRKPNV
In the case of B2, the binding result in experiment [2] is “binds”.

B3: Drosophila melanogaster full-length secreted semaphorin-2a (Sema2a_(full)) (ligand, UniProt Q24323 26-724, looked up)
chain: B2 chain
notes: Semaphorin-2a, Drosophila melanogaster, residues 26D-724V; Disulfide-linked dimer in solution; source: HEK293T (37 °C), transient transfection, purified (HisTrap, SEC)
Turning to B3, in experiment [3], the binding result is given as “no binding”.

B4: Drosophila melanogaster semaphorin-1b full-length ectodomain (Sema1b_(ecto)) (domain or fragment, UniProt Q7KK54 37-659, looked up)
chain: DVKPDLQTKQDKVLAHFIGNSTDYFKILDHNDEFVLVGAKDVIYNVSLNGLKEIARLEWHSTDADRELCALKGKHEWDCHNYLRVYALRPNGEVLLCGTNSYKPRCRHYTPVEVSSEEAGSAGHAHAMRYEVSRDVEAQGLCPYSPAHNSTYAFADGHLYSATVADFSGGDPLIYRENLRTEQYDLKQLNQPDFVGAIERNGYVLFFFRELSMEVMNFGKAVYSRVARVCKNDRGGPYSHGKSWTSFLKARLNCSVPGEFPFYFDEIQAISPIVESGSKSLIYAVFTTSVNAIPGSAVCAFNVDDILAAFDGEFKSQKDSQSHWLPVEREQVPKPRPGQCVEDSRTLTSIAVNFIKNHPLMEEAVPAVHGRPLLTKVNLHHRLTAIAVHPQVKSLSGAYYDVIYSGTDDGKVTKFINILSTHPNSTVDRLKTVVISEMQVLPLGTPIRELVISTSKNSLVVVSDGSLVSVPLHHCSHIVDCLGCLSLQDPICAWDLQTHECKNLATSQHKFGTKTYLQSLNSTKKAAALLCPHIPRDAPGAETVSFVTMAPPPTEEQKLLYSNVGSSQGNQPSLEQQPTGGDDFGLNKITLTSMDPDDIMPNLNDPQKSTASVDEIKYASTPS
notes: Semaphorin-1b, Drosophila melanogaster, ectodomain, residues 37D-659S; Monomer in solution; source: HEK293T (30 °C), transient transfection, purified (HisTrap, SEC)
For the molecule B4, the binding result is on record as “no binding (tested: 2 mg/ml)” in experiment [4] and “no binding” in experiment [5].

B5: Drosophila melanogaster Sema1b1–2 (sema and PSI domains) (domain or fragment, UniProt Q7KK54 37-602)
chain: DVKPDLQTKQDKVLAHFIGNSTDYFKILDHNDEFVLVGAKDVIYNVSLNGLKEIARLEWHSTDADRELCALKGKHEWDCHNYLRVYALRPNGEVLLCGTNSYKPRCRHYTPVEVSSEEAGSAGHAHAMRYEVSRDVEAQGLCPYSPAHNSTYAFADGHLYSATVADFSGGDPLIYRENLRTEQYDLKQLNQPDFVGAIERNGYVLFFFRELSMEVMNFGKAVYSRVARVCKNDRGGPYSHGKSWTSFLKARLNCSVPGEFPFYFDEIQAISPIVESGSKSLIYAVFTTSVNAIPGSAVCAFNVDDILAAFDGEFKSQKDSQSHWLPVEREQVPKPRPGQCVEDSRTLTSIAVNFIKNHPLMEEAVPAVHGRPLLTKVNLHHRLTAIAVHPQVKSLSGAYYDVIYSGTDDGKVTKFINILSTHPNSTVDRLKTVVISEMQVLPLGTPIRELVISTSKNSLVVVSDGSLVSVPLHHCSHIVDCLGCLSLQDPICAWDLQTHECKNLATSQHKFGTKTYLQSLNSTKKAAALLCPHIPRDAPGAETVSFVTMAPPPTEEQKLLYSNVGS
On to B5, for which, in experiment [6], the binding entry is “no binding”.

The record behind these values is article PMC6695400, “Diversity of oligomerization in Drosophila semaphorins suggests a mechanism of functional fine-tuning” (Nature Communications, 2019).
